Measured values as given in paper PMC10112521, “High-throughput AR dimerization assay identifies androgen disrupting chemicals and metabolites” (Frontiers in Toxicology, 2023).

Tested on: AR2 cells (HepG2-AR2)
Assay: Alamar Blue (resazurin) post hoc cell viability / cytotoxicity assay in AR2 cells

SMILES: CC(C)(C)c1ccc(O)cc1 [4-tert-Butylphenol]
- hill_tp (Hill model top): 0
- max_med (maximum median response): 11.6734
